Data as given in article PMC3427372, “Proteomic Analysis Reveals New Cardiac-Specific Dystrophin-Associated Proteins” (PLoS ONE, 2012).
Where two headings read alike, the source gives them in different places. These are yes or no findings as the source states them, for the method shown. In cells and extracts the contact can be indirect. Some results given as binding are weak or reduced against the parent protein; the word gives no strength. One block for each molecule: values may come before it.

Sequences of proteins named here, by UniProt entry; tags and fusion partners are left off.
UniProt P11532: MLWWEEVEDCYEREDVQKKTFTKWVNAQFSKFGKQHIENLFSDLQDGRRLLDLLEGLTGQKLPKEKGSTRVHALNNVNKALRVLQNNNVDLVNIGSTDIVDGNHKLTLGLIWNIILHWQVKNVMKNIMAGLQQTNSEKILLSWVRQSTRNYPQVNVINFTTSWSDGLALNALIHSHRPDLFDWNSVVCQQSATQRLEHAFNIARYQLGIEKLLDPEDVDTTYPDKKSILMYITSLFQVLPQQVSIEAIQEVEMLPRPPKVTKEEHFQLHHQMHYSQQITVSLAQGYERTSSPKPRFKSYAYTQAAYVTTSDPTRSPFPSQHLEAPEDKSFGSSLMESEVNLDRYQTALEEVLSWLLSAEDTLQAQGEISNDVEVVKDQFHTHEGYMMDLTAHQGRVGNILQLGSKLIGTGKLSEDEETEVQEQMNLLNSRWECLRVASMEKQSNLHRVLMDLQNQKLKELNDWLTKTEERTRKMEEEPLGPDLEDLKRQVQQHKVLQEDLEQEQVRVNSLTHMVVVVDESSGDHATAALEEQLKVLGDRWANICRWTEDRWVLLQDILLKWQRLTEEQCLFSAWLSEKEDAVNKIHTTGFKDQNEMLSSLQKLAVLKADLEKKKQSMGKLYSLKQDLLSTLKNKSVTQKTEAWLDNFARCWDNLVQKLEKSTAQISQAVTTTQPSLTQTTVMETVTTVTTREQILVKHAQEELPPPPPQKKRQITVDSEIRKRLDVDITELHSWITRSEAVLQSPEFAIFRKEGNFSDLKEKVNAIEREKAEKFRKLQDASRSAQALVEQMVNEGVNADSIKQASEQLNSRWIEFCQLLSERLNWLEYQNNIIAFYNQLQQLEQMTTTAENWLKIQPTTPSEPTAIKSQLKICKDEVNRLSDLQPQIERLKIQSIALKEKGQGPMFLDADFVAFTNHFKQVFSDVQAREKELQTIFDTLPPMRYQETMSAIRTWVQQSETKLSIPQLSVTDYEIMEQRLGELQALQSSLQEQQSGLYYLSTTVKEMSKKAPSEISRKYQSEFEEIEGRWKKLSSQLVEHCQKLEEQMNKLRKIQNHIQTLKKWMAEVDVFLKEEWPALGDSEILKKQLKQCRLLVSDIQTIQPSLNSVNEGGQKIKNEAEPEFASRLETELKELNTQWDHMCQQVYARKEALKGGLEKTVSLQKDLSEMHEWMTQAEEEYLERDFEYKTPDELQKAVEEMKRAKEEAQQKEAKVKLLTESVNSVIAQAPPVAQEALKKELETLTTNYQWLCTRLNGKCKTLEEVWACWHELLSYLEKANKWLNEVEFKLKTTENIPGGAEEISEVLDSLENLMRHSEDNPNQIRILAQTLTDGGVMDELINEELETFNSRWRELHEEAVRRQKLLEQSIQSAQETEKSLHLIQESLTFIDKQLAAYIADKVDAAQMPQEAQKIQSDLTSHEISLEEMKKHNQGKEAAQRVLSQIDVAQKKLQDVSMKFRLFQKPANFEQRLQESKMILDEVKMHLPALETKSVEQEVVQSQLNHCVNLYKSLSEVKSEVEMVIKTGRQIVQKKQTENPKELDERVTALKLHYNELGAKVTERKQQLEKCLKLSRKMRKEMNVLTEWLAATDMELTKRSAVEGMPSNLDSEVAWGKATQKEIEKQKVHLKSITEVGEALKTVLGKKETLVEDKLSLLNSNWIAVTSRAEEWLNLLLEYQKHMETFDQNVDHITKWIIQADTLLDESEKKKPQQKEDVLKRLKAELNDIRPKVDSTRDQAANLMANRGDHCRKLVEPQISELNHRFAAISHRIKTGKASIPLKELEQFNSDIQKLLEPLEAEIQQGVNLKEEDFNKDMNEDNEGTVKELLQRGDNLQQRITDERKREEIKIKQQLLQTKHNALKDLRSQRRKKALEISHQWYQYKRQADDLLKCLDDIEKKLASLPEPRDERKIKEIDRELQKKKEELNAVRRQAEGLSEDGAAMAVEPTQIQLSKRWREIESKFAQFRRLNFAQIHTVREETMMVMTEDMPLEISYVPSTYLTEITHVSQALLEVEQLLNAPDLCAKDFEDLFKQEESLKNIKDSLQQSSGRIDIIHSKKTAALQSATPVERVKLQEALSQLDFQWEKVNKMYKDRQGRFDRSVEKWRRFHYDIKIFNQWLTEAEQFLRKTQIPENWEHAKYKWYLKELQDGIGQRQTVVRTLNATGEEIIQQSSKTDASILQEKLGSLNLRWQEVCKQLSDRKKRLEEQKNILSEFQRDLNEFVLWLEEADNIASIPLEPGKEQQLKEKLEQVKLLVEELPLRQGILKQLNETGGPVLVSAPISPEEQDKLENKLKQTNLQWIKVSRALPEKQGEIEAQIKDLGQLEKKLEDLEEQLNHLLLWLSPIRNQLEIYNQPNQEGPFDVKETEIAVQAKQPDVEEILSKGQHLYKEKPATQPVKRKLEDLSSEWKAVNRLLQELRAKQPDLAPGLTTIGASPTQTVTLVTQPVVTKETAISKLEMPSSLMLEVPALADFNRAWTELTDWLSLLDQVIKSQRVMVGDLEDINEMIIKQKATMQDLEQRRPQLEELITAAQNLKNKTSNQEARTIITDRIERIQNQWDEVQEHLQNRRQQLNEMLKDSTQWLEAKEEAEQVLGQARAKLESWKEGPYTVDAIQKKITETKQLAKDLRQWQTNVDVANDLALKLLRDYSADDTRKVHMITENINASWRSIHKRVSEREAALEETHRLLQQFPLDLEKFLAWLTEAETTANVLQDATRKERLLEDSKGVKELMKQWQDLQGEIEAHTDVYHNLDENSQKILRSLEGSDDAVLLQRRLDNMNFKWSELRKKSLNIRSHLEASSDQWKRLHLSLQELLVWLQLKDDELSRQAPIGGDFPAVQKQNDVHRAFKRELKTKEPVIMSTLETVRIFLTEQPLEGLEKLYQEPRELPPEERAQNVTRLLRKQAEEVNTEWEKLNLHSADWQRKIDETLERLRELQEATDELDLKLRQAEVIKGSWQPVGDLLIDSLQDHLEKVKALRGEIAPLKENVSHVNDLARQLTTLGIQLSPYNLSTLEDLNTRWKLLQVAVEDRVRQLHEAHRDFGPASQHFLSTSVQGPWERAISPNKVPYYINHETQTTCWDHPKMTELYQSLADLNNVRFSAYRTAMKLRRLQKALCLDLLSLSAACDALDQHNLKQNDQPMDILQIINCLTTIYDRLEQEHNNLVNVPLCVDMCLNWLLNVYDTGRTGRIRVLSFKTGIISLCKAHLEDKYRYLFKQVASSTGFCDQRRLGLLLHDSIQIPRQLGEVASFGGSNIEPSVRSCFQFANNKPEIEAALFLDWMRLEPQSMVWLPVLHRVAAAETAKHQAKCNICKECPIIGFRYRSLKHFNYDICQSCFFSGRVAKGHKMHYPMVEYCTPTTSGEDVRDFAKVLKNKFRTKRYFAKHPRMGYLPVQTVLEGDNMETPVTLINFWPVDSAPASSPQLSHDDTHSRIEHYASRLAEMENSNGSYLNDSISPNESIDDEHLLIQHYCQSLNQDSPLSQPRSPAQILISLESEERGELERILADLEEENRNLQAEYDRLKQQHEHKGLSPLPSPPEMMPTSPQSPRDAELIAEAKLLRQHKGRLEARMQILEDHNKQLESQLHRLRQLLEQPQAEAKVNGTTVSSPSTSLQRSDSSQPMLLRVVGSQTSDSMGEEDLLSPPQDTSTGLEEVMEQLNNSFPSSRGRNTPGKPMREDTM

What was measured:
[1] = target: Dystrophin (human heart) (human (endogenous in cardiac biopsy)) (UniProt P11532); assay: co-IP; DYS-IP (MANDYS1 cross-linked to protein G magnetic beads) from human cardiac biopsy (ventricular tissue) lysate, Western blot
[2] = target: T1, β-dystroglycan (mouse (endogenous in cardiac and skeletal muscle)) (UniProt Q62165); assay: co-IP; MANDAG2 (anti-β-dystroglycan) IP from wild type mouse heart lysate, Western blot
T1 sequence: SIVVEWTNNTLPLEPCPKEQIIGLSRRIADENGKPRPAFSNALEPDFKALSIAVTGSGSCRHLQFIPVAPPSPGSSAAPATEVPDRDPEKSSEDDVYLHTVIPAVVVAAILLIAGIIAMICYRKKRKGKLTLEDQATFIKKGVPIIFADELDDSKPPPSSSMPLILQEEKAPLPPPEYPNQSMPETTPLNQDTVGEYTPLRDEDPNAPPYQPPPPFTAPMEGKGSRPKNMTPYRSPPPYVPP

[3] = target: Dystrophin (mouse (endogenous in cardiac and skeletal muscle)) (UniProt P11531); assay: co-IP; DYS-IP (MANDYS1) and control IgG-IP, Western blot for α- and β-dystroglycan (Figure 1C); the tissue is not named in the legend
[4] = target: Dystrophin (mouse (endogenous in cardiac and skeletal muscle)) (UniProt P11531); assay: co-IP; DYS-IP (MANDYS1 cross-linked to protein G magnetic beads) from wild type mouse skeletal muscle (quadriceps) lysate, 3 hr at 4°C, Western blot; controls IgG-IP and mdx muscle
[5] = target: Dystrophin (human heart) (human (endogenous in cardiac biopsy)) (UniProt P11532); assay: co-IP; DYS-IP (MANDYS1 cross-linked to protein G magnetic beads) from human cardiac biopsy (ventricular tissue) lysate, Western blot; remark: listed apart in the source
[6] = target: Dystrophin (mouse (endogenous in cardiac and skeletal muscle)) (UniProt P11531); assay: co-IP; DYS-IP (MANDYS1 cross-linked to protein G magnetic beads) from wild type mouse cardiac muscle lysate, 3 hr at 4°C, Western blot; controls IgG-IP and mdx

Molecule: Ahnak1 (human heart) (from UniProt Q09666 1-5890)
- binding [1]: binds

Molecule: Dystrophin (from UniProt P11531 1-3678)
- binding [2]: binds

B3: α1-dystrobrevin (human heart) (protein, UniProt Q9Y4J8 1-743)
chain: MIEDSGKRGNTMAERRQLFAEMRAQDLDRIRLSTYRTACKLRFVQKKCNLHLVDIWNVIEALRENALNNLDPNTELNVSRLEAVLSTIFYQLNKRMPTTHQIHVEQSISLLLNFLLAAFDPEGHGKISVFAVKMALATLCGGKIMDKLRYIFSMISDSSGVMVYGRYDQFLREVLKLPTAVFEGPSFGYTEQSARSCFSQQKKVTLNGFLDTLMSDPPPQCLVWLPLLHRLANVENVFHPVECSYCHSESMMGFRYRCQQCHNYQLCQDCFWRGHAGGSHSNQHQMKEYTSWKSPAKKLTNALSKSLSCASSREPLHPMFPDQPEKPLNLAHIVDTWPPRPVTSMNDTLFSHSVPSSGSPFITRSSPPKDSEVEQNKLLARAAPAFLKGKGIQYSLNVADRLADEHVLIGLYVNMLRNNPSCMLESSNRLDEEHRLIARYAARLAAESSSSQPPQQRSAPDISFTIDANKQQRQLIAELENKNREILQEIQRLRLEHEQASQPTPEKAQQNPTLLAELRLLRQRKDELEQRMSALQESRRELMVQLEGLMKLLKTQGAGSPRSSPSHTISRPIPMPIRSASACSTPTHTPQDSLTGVGGDVQEAFAQSSRRNLRNDLLVAADSITNTMSSLVKELNSEVGSETESNVDSEFARTQFEDLVPSPTSEKAFLAQIHARKPGYIHSGATTSTMRGDMVTEDADPYVQPEDENYENDSVRQLENELQMEEYLKQKLQDEAYQVSLQG
- binding [5]: binds

B5: α1-dystrobrevin (natural protein, UniProt Q9D2N4 1-746, looked up)
chain: MIEDSGKRGNTMAERRQLFAEMRAQDLDRIRLSTYRTACKLRFVQKKCNLHLVDIWNVIEALRENALNNLDPNIELNVARLEAVLSTIFYQLNKRMPTTHQIHVEQSISLLLNFLLAAFDPEGHGKISVFAVKMALATLCGGKIMDKLRYIFSMISDSSGVMVYGRYDQFLREVLKLPTAVFEGPSFGYTEQSARSCFSQQKKVTLNGFLDTLMSDPPPQCLVWLPLLHRLANVENVFHPVECSYCHSESMMGFRYRCQQCHNYQLCQDCFWRGHAGGSHSNQHQMKEYTSWKSPAKKLTNALSKSLSCASSREPLHPMFPDQPEKPLNLAHIVPPRPVTSMNDTLFSHSVPSSGSPFITRSSPPKDSEVEQNKMLARAAPAFLKGRGIQYSLNVADRLADEHVLIGLYVNMLRNDPPCMLESSNRLDEEHRLIARYAARLAAESSSSQPTQQRSAPDISFTIDANKQQRQLIAELENKNREILQEIQRLRVEHEQASQPTPEKAQQNPTLLAELRLLRQRKDELEQRMSALQESRRELMVQLEGLMKLLKEEELKQGTQGASSPRSSPSHTISRPIPMPIRSASACPTPTHTPQDSLTGVGGDVQEAFAQSSRRNLRSDLLVAADSITNTMSSLVKELNSEVASETESTVDSEFSRPQFEDLAPSPTSEKAFLAQIHSRKPGYIHGGAASTTHGDMVPEDGDPYTQPEDGNYENESVRQLENELQLEEYLKQKLQDEAYQVSLQG
notes: α-dystrobrevin splice variant α1, mouse; told apart on blots by molecular weight with a pan α-dystrobrevin antibody; also called DTNA1; source: endogenous, mouse cardiac ventricle and skeletal muscle (quadriceps) lysate
- binding [4]: binds

B6: α1-Syntrophin (protein, UniProt Q61234 1-503)
chain: MASGRRAPRTGLLELRCGAGSGAGGERWQRVLLSLAEDALTVSPADGEPGPEPEPAQLNGAAEPGAAPPQLPEALLLQRRRVTVRKADAGGLGISIKGGRENKMPILISKIFKGLAADQTEALFVGDAILSVNGEDLSSATHDEAVQALKKTGKEVVLEVKYMKEVSPYFKNSAGGTSVGWDSPPASPLQRQPSSPGPQPRNLSEAKHVSLKMAYVSRRCTPTDPEPRYLEICAADGQDAVFLRAKDEASARSWAGAIQAQIGTFIPWVKDELQALLTATGTAGSQDIKQIGWLTEQLPSGGTAPTLALLTEKELLFYCSLPQSREALSRPTRTAPLIATSSAHRLVHSGPSKGSVPYDAELSFALRTGTRHGVDTHLFSVESPQELAAWTRQLVDGCHRAAEGIQEVSTACTWNGRPCSLSVHIDKGFTLWAAEPGAARAMLLRQPFEKLQMSSDDGTSLLFLDFGGAEGEIQLDLHSCPKTMVFIIHSFLSAKVTRLGLLA
- binding [6]: binds
- binding [4]: binds

Further lines, results first:

- binding [3]: binds
- binding [4]: binds
B1: β-dystroglycan (protein, UniProt Q62165 652-893)
chain: T1 sequence

- binding [3]: binds
B2: α-dystroglycan (protein, UniProt Q62165 28-651)
chain: HWPSEPSEAVRDWKNQLEASMHSVLSDFQEAVPTVVGIPDGTAVVGRSFRVSIPTDLIASSGEIIKVSAAGKEALPSWLHWDPHSHILEGLPLDTDKGVHYISVSAARLGANGSHVPQTSSVFSIEVYPEDHNEPQSVRAASSDPGEVVPSACAADEPVTVLTVILDADLTKMTPKQRIDLLNRMQSFSEVELHNMKLVPVVNNRLFDMSAFMAGPGNAKKVVENGALLSWKLGCSLNQNSVPDIRGVETPAREGAMSAQLGYPVVGWHIANKKPTLPKRLRRQIHATPTPVTAIGPPTTAIQEPPSRIVPTPTSPAIAPPTETMAPPVRDPVPGKPTVTIRTRGAIIQTPTLGPIQPTRVSEAGTTVPGQIRPTLTIPGYVEPTAVITPPTTTTKKPRVSTPKPATPSTDSSTTTTRRPTKKPRTPRPVPRVTTKAPITRLETASPPTRIRTTTSGVPRGGEPNQRPELKNHIDRVDAWVGTYFEVKIPSDTFYDNEDTTTDKLKLTLKLREQQLVGEKSWVQFNSNSQLMYGLPDSSHVGKHEYFMHATDKGGLSAVDAFEIHVHKRPQGDKAPARFKARLAGDPAPVVNDIHKKIALVKKLAFAFGDRNCSSITLQNITRG

- binding [5]: binds
B4: β2-syntrophin (human heart) (protein, UniProt Q13425 1-540)
chain: MRVAAATAAAGAGPAMAVWTRATKAGLVELLLRERWVRVVAELSGESLSLTGDAAAAELEPALGPAAAAFNGLPNGGGAGDSLPGSPSRGLGPPSPPAPPRGPAGEAGASPPVRRVRVVKQEAGGLGISIKGGRENRMPILISKIFPGLAADQSRALRLGDAILSVNGTDLRQATHDQAVQALKRAGKEVLLEVKFIREVTPYIKKPSLVSDLPWEGAAPQSPSFSGSEDSGSPKHQNSTKDRKIIPLKMCFAARNLSMPDLENRLIELHSPDSRNTLILRCKDTATAHSWFVAIHTNIMALLPQVLAELNAMLGATSTAGGSKEVKHIAWLAEQAKLDGGRQQWRPVLMAVTEKDLLLYDCMPWTRDAWASPCHSYPLVATRLVHSGSGCRSPSLGSDLTFATRTGSRQGIEMHLFRVETHRDLSSWTRILVQGCHAAAELIKEVSLGCMLNGQEVRLTIHYENGFTISRENGGSSSILYRYPFERLKMSADDGIRNLYLDFGGPEGELTMDLHSCPKPIVFVLHTFLSAKVTRMGLLV

- binding [4]: binds
B7: β1-Syntrophin (natural protein, UniProt Q99L88 1-537, looked up)
chain: MAVAAAAVAAPAGGGGARAQRSGLLEVLVRDRWHKVLVNLSEDALVLSCEEGAAAYNGIGAATNGSFCRGSGTGHPVPGVAQAPDSPAGVRTAFTDLPEQVPESISNQKRGVKVLKQELGGLGISIKGGKENKMPILISKIFKGLAADQTQALYVGDAILSVNGADLRDATHDEAVQALKRAGKEVLLEVKYMREATPYVKKGSPVSEIGWETPPPESPRLGGGSAEPLSSQSFSFHRDRKSIPLKMCYVTRNMTLADPENRQLEIHSPDAKHTVILRSKDSATAQAWFSAIHSNAGDLLTRVVADIREQLGKTGIAGSREIRHLGWLAEKVPGESEKQWKPALVVLTEKDLLIYDSMPRRKEAWFSPVHSYPLLATRLVHSGPGKGSPQAGMDLSFATRTGTKQGIETHLFRAEISRDLSHWTRSIVQGCHNSAELTAEITTACTYRNQECRLTIHYDNGFSISTEPQDGAFPKTIIQSPYEKLKMSSDDGIRMLYLDFGGKEGEIQLDLHSCPKPIVFIIHSFLSAKITRLGLVA
notes: β1-syntrophin, mouse; source: endogenous, mouse cardiac ventricle and skeletal muscle (quadriceps) lysate
